Data source: PubChem BioAssay AID1508597 (Cure First, 2020)
Aim: 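Survival screen with siRNA in ovarian cancer cells derived from patients, with or without rucaparib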 (primary screen). System: human ovarian carcinoma lines grown from tumours: OCI-P5x (papillary serous) and OCI-C5x (clear cell). Reagents: siRNA pool against human genes, 1.25 pmol siRNA per well. Time to read-out: 72 h or 96 h, depending on the cell culture. Treatment: rucaparib 20 µM (about IC30) or vehicle, present until read-out. Rucaparib or vehicle: Vehicle. Cell line: OCI-C5x (clear cell). Detection: 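Luminescent ATP-based viability assay read 72 or 96 h after transfection, depending on culture, given as normalised percent viability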. Scale: viability, normalised: higher = more viable cells remaining. Call rule: 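Active when normalised viability falls below 80 percent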. Calls: active = viability under 80%; inactive = viability 80% or more.
This is a random part of the about 2,100 reagents, in one setting of the screen. 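Calls flag viability under 80% in either arm, not effects specific to rucaparib; the reference for percent is not stated.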 Not given: the 100% reference.

For JMJD6, technical replicate 1 the deposit lists viability, normalised (%) = 57.8; active. JMJD6, technical replicate 2 showed viability, normalised (%) = 50.8; active. JMJD6, technical replicate 3 showed viability, normalised (%) = 55.9; active. With PRG3, technical replicate 1 the deposit lists viability, normalised (%) = 58.8; active. With PRG3, technical replicate 2, the values are viability, normalised (%) = 51.2; active. PRG3, technical replicate 3 gave viability, normalised (%) = 45.5; active.

With SLC22A11, technical replicate 1 the deposit lists viability, normalised (%) = 33.1; active. SLC22A11, technical replicate 2 scored viability, normalised (%) = 35.4; active. SLC22A11, technical replicate 3 showed viability, normalised (%) = 24.6; active. With PIP4K2B, technical replicate 1, the values are viability, normalised (%) = 57.9; active. With PIP4K2B, technical replicate 2, the values are viability, normalised (%) = 64.1; active. PIP4K2B, technical replicate 3 scored viability, normalised (%) = 58.9; active.

Records listed so far whose target name starts with P or p:
PRG3, technical replicate 1 → viability, normalised (%) = 58.8; outcome = active
PRG3, technical replicate 2 → viability, normalised (%) = 51.2; outcome = active
PRG3, technical replicate 3 → viability, normalised (%) = 45.5; outcome = active
PIP4K2B, technical replicate 1 → viability, normalised (%) = 57.9; outcome = active
PIP4K2B, technical replicate 2 → viability, normalised (%) = 64.1; outcome = active
PIP4K2B, technical replicate 3 → viability, normalised (%) = 58.9; outcome = active

Continued.
GUCY2D, technical replicate 1 gave viability, normalised (%) = 41.7; active. With GUCY2D, technical replicate 2 the deposit lists viability, normalised (%) = 39.2; active. For GUCY2D, technical replicate 3 the deposit lists viability, normalised (%) = 40.9; active. DNA2, technical replicate 1 gave viability, normalised (%) = 74.8; active. For DNA2, technical replicate 2, the entry reads viability, normalised (%) = 71.9; active. DNA2, technical replicate 3 scored viability, normalised (%) = 57.1; active.

With PRPS1L1, technical replicate 1, the values are viability, normalised (%) = 71.4; active. PRPS1L1, technical replicate 2 showed viability, normalised (%) = 55.5; active. With PRPS1L1, technical replicate 3 the deposit lists viability, normalised (%) = 53.9; active.
